This note sets out measurements from publication PMC8529501 (iScience, 2021).

One test addresses HA-FKBP12 (UniProt P62942). As to the kind of experiment: co-IP; tagged proteins cotransfected in HEK293T; lysis in 20 mM Tris-HCl pH 7.4, 150 mM NaCl, 0.5% NP-40, 10% glycerol, 1 mM DTT; tag IP, washed with PBS, Western blot; cells untreated or treated with rapamycin, amino acids or serum, NAM or TSA as in the legends. (In general: A western blot detects proteins with antibodies after separation by electrophoresis.)

A further test concerns the target FLAG-FKBP12 (UniProt P62942). Described as above.
In a further test the target is FKBP12-C-Luc (UniProt P62942). Kind of test: split reporter; split luciferase: FKBP12 fused to C-Luc, FRB or Rheb fused to N-Luc, cotransfected in HEK293T; rapamycin treatment for 6 h; with or without TSA or NAM pretreatment for 2 h; luciferase activity.

These are yes or no findings as the source states them, for the method shown. Binding seen in cells or lysates may run through a third protein. Some results given as binding are weak or reduced against the parent protein; the word gives no strength.

In the case of Flag-Rheb (from UniProt Q15382 1-184), the binding result with HA-FKBP12 is “binds”.
For “Flag-Rheb-K8Q (from UniProt Q15382 1-184)”, the binding result with HA-FKBP12 is listed as “binds”.
As for Myc-Rheb (from UniProt Q15382 1-184), the binding entry with HA-FKBP12 and in the test with FLAG-FKBP12 was “binds” throughout.
In the case of “Flag-Rheb-K8R (from UniProt Q15382 1-184)”, the binding result with HA-FKBP12 is reported as “binds”.
Take Rheb-N-Luc (from UniProt Q15382 1-184): in the test with FKBP12-C-Luc, the binding result is on record as “binds”.
